Results are given in words; binding and its absence hold for the method and conditions named. Some entries that bind do so weakly or less than the wild type.
Legend:
[1] = molecular target: recombinant PTS1 with N-terminal 6x His-tag (Bordetella pertussis) (UniProt P04977); experiment: far-Western, overlay or dot blot; both purified
[2] = molecular target: recombinant PTS1, His-tag enzymatically removed (Bordetella pertussis) (UniProt P04977); experiment: far-Western, overlay or dot blot; both purified

Sequences of proteins named here, by UniProt entry; tags and fusion partners are left off. Residues count along the entry.
UniProt P04977, residues 35-269: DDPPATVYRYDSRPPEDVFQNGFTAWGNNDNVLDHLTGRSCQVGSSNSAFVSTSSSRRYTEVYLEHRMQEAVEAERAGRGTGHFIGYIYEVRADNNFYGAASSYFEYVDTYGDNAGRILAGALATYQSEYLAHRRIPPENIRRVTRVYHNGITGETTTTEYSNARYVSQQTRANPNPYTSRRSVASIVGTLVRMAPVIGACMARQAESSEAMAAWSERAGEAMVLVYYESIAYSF
UniProt P59665, residues 65-94: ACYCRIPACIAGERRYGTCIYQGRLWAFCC

Substance: human α-defensin-1 (from UniProt P59665 65-94) (peptide)
- binding [1]: binds
- binding [2]: binds

Source: article PMC10341622
